# This is one part of the list.
# Biological target: T1, OsSMF1 (Oryza sativa, UniProt Q6ZLB0 1-436)
# T1 sequence: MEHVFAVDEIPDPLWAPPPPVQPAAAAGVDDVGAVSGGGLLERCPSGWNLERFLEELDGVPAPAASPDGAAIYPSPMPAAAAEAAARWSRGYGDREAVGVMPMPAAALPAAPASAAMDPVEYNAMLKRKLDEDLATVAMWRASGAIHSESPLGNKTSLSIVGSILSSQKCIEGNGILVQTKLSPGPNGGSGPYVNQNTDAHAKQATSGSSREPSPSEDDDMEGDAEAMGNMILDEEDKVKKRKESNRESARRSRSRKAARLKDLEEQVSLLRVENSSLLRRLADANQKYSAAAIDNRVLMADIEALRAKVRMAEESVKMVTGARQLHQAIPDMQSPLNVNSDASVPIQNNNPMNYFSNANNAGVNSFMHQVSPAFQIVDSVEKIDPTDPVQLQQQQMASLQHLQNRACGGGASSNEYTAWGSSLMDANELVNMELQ
# Experiment: protein-binding microarray (RPBM); PBS, 2% BSA, 51.3 ng/ul salmon testes DNA, 50 uM zinc acetate, 200 nM TF, 25 C, 1 h; high values mean tight binding
# Conditions: protein: recombinant; tags: N-terminal polyhistidine and DsRed monomer fusion (pET32a); chain copies: 2; label: CyDye5-dUTP incorporated in the synthesized complementary strand; 3' TTTTT single-stranded linker to array surface; dsDNA, one strand shown
# In short: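 The binding signal for each feature is its fluorescence intensity in arbitrary units. An Axon 4000B scanner was used to read a custom Agilent array that had been made double-stranded with Cy5-dUTP primer extension, blocked with 2% BSA, incubated at 25 °C for 1 h with 200 nM protein in PBS, 2% BSA, salmon testes DNA and 50 µM zinc acetate, and washed. The protein was an N-terminal polyhistidine–DsRed transcription factor fusion from E. coli BL21-CodonPlus, purified on Ni–NTA.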
row,Sequence,binding signal
1,AATATTGAGGCCAGGAGATTTACCAGTTACCACGGATTTGCGGAGTCACCTAGTGCAG,4000 fluorescence intensity (a.u.)
2,ACTCGGTTGGACAACGTCGTCATTCTCTCGCCATTGGCTGCGGAGTCACCTAGTGCAG,3540 fluorescence intensity (a.u.)
3,AATGTAGGCACCATACCATGACTGTTTTCACACATTGTACCGGAGTCACCTAGTGCAG,3580 fluorescence intensity (a.u.)
4,ATCCTTGTCTTTTGTCTGTTTTGATATCGTACTACGTAGACGGAGTCACCTAGTGCAG,3250 fluorescence intensity (a.u.)
5,CGATTCCCAACCCTAACCGTCGTCACTGCCACCGCCAGCCCGGAGTCACCTAGTGCAG,4150 fluorescence intensity (a.u.)
6,TACTCAAGTGACAAGTGTCAAAGTGCGTGTGGTTTTCTACCGGAGTCACCTAGTGCAG,3970 fluorescence intensity (a.u.)
7,TACAGACCAAATCACCCGAATCGATCTCTGCCGTCCATCTCGGAGTCACCTAGTGCAG,3240 fluorescence intensity (a.u.)
8,AGCCTATTTATAACACGCGGCGCGGCCGTGTGAGCGCCGCCGGAGTCACCTAGTGCAG,3580 fluorescence intensity (a.u.)
9,TAATTCCTTCCACTAATTACCAAGCGGCAATCGGCGGCCACGGAGTCACCTAGTGCAG,3320 fluorescence intensity (a.u.)
10,GAGGGCCTCCCCGACCTCGCGCTGCTCCACCTCAACTCCACGGAGTCACCTAGTGCAG,3420 fluorescence intensity (a.u.)
11,TCTCTTACAAATAAACCTGAATACACAAAACTTAGGTGTGCGGAGTCACCTAGTGCAG,33600 fluorescence intensity (a.u.)
12,TCGGTCTTCGTCCCACGTGTCGTCGACGTGTCGCTTATCTCGGAGTCACCTAGTGCAG,24300 fluorescence intensity (a.u.)
13,TCTCCGACATTGACACAGGCATCACCGGCAACGTCCGACTCGGAGTCACCTAGTGCAG,3430 fluorescence intensity (a.u.)
14,AGCTTTACGAAAGGCCACACCTCGGATTATAAATACTACCCGGAGTCACCTAGTGCAG,3920 fluorescence intensity (a.u.)
15,GATCCCAACGCCGACCCTACACGTCATCCCTACGCCTCGTCGGAGTCACCTAGTGCAG,21700 fluorescence intensity (a.u.)
16,GGGTCCCACGCTGACTCAGCCGCCACGTCGAATAAAACCGCGGAGTCACCTAGTGCAG,23300 fluorescence intensity (a.u.)
17,AGCATGTCCGGCACGCCGATGGACGTGTGCGTGGCGCTCGCGGAGTCACCTAGTGCAG,4870 fluorescence intensity (a.u.)
18,GTAGGTATCGTCGTGTCAAAATTTTGATTCCTCCATGACACGGAGTCACCTAGTGCAG,3230 fluorescence intensity (a.u.)
19,AAAGTCTTGAACCGTTTGAGTGATGTCAGATTTAATCCAACGGAGTCACCTAGTGCAG,5870 fluorescence intensity (a.u.)
20,AGTTTTGCCACGCATATTATCCACTTTCCCATGAGTGCTTCGGAGTCACCTAGTGCAG,3630 fluorescence intensity (a.u.)
21,CGTACCCGGAGACGAAGTCCACGTCGGAGAACAGGAGCTGCGGAGTCACCTAGTGCAG,7820 fluorescence intensity (a.u.)
22,ACAGACACGTCGGCCCCACCAACTCCAGGGCCCACATGTCCGGAGTCACCTAGTGCAG,5230 fluorescence intensity (a.u.)
23,TATCCATTGCTCCCAAACACTCAGTAAGTACTCATCCAGTCGGAGTCACCTAGTGCAG,3800 fluorescence intensity (a.u.)

# A few values from the entries so far:
# TCTCCGACATTGACACAGGCATCACCGGCAACGTCCGACTCGGAGTCACCTAGTGCAG | binding signal: 3430 fluorescence intensity (a.u.)
# TACAGACCAAATCACCCGAATCGATCTCTGCCGTCCATCTCGGAGTCACCTAGTGCAG | binding signal: 3240 fluorescence intensity (a.u.)
